PubChem BioAssay AID1508597 – Cure First, 2020
This is a random part of the about 2,100 reagents, in one setting of the screen. 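Calls flag viability under 80% in either arm, not effects specific to rucaparib; the reference for percent is not stated.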 Not given: the 100% reference.

Aim: 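Knock-downs altering ovarian cancer cell survival with or without PARP inhibitor rucaparib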 (primary screen)
System: human ovarian carcinoma lines grown from tumours: OCI-P5x (papillary serous) and OCI-C5x (clear cell)
Reagents: siRNA pool against human genes, 1.25 pmol siRNA per well
Time to read-out: 72 h or 96 h, depending on the cell culture
Challenge: rucaparib 20 µM (about IC30) or vehicle, present until read-out
Rucaparib or vehicle: Vehicle
Cell line: OCI-C5x (clear cell)
Measured: 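Luminescent ATP-based viability assay read 72 or 96 h after transfection, depending on culture, given as normalised percent viability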
Direction: viability, normalised: higher = more viable cells remaining
Active means: 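a well counts as a hit if its normalised viability is under 80 percent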
Calls: active = viability under 80%; inactive = viability 80% or more

How did the screen score EME1 (essential meiotic structure-specific endonuclease 1) [SID405528379], technical replicate 1?
viability, normalised (%): 48.1; call: active

For EME1 (essential meiotic structure-specific endonuclease 1) [SID405528379], technical replicate 2, how do the results read?
viability, normalised (%): 53.4; call: active

What did the screen give for EME1 (essential meiotic structure-specific endonuclease 1) [SID405528379], technical replicate 3?
viability, normalised (%): 60.8; call: active

For PI4K2A (phosphatidylinositol 4-kinase type 2 alpha) [SID405527854], technical replicate 1, what was measured?
viability, normalised (%): 63.2; call: active

What did the screen give for PI4K2A (phosphatidylinositol 4-kinase type 2 alpha) [SID405527854], technical replicate 2?
viability, normalised (%): 51.5; call: active

What did the screen give for PI4K2A (phosphatidylinositol 4-kinase type 2 alpha) [SID405527854], technical replicate 3?
viability, normalised (%): 49.9; call: active

With PDE12 (phosphodiesterase 12) [SID405526682], technical replicate 1, what does the deposit list?
viability, normalised (%): 48.9; call: active

How did the screen score PDE12 (phosphodiesterase 12) [SID405526682], technical replicate 2?
viability, normalised (%): 46.2; call: active

What did the screen give for PDE12 (phosphodiesterase 12) [SID405526682], technical replicate 3?
viability, normalised (%): 43.7; call: active

Which result is listed for ZMYND11 (zinc finger MYND-type containing 11) [SID405526654], technical replicate 1?
viability, normalised (%): 52.4; call: active

For ZMYND11 (zinc finger MYND-type containing 11) [SID405526654], technical replicate 2, what was measured?
viability, normalised (%): 50.8; call: active

For ZMYND11 (zinc finger MYND-type containing 11) [SID405526654], technical replicate 3, how do the results read?
viability, normalised (%): 55.9; call: active

With ENOSF1 (enolase superfamily member 1) [SID405528437], technical replicate 1, how do the results read?
viability, normalised (%): 85.4; call: inactive

What is on record for ENOSF1 (enolase superfamily member 1) [SID405528437], technical replicate 2?
viability, normalised (%): 71.1; call: active

What is on record for ENOSF1 (enolase superfamily member 1) [SID405528437], technical replicate 3?
viability, normalised (%): 81; call: inactive

Which result is listed for BDP1 (BDP1 general transcription factor IIIB subunit) [SID405528029], technical replicate 1?
viability, normalised (%): 35.1; call: active

With BDP1 (BDP1 general transcription factor IIIB subunit) [SID405528029], technical replicate 2, what does the deposit list?
viability, normalised (%): 32.5; call: active

With BDP1 (BDP1 general transcription factor IIIB subunit) [SID405528029], technical replicate 3, what does the deposit list?
viability, normalised (%): 52.5; call: active

For ESPL1 (extra spindle pole bodies like 1, separase) [SID405528259], technical replicate 1, what was measured?
viability, normalised (%): 54.4; call: active

For ESPL1 (extra spindle pole bodies like 1, separase) [SID405528259], technical replicate 2, what does the deposit list?
viability, normalised (%): 72.2; call: active

For ESPL1 (extra spindle pole bodies like 1, separase) [SID405528259], technical replicate 3, how do the results read?
viability, normalised (%): 55.3; call: active

Which result is listed for MARVELD3 (MARVEL domain containing 3) [SID405527436], technical replicate 1?
viability, normalised (%): 69.7; call: active

Which result is listed for MARVELD3 (MARVEL domain containing 3) [SID405527436], technical replicate 2?
viability, normalised (%): 53.2; call: active

With MARVELD3 (MARVEL domain containing 3) [SID405527436], technical replicate 3, how do the results read?
viability, normalised (%): 57.6; call: active

How did the screen score SMN2 (survival of motor neuron 2, centromeric) [SID405527344], technical replicate 1?
viability, normalised (%): 43.8; call: active

What did the screen give for SMN2 (survival of motor neuron 2, centromeric) [SID405527344], technical replicate 2?
viability, normalised (%): 31.7; call: active

For SMN2 (survival of motor neuron 2, centromeric) [SID405527344], technical replicate 3, how do the results read?
viability, normalised (%): 46.8; call: active

How did the screen score ACIN1 (apoptotic chromatin condensation inducer 1) [SID405527943], technical replicate 1?
viability, normalised (%): 51.5; call: active

How did the screen score ACIN1 (apoptotic chromatin condensation inducer 1) [SID405527943], technical replicate 2?
viability, normalised (%): 50.8; call: active

For ACIN1 (apoptotic chromatin condensation inducer 1) [SID405527943], technical replicate 3, how do the results read?
viability, normalised (%): 29; call: active

What did the screen give for PHF21A (PHD finger protein 21A) [SID405527151], technical replicate 1?
viability, normalised (%): 41.8; call: active

With PHF21A (PHD finger protein 21A) [SID405527151], technical replicate 2, how do the results read?
viability, normalised (%): 33.7; call: active

With PHF21A (PHD finger protein 21A) [SID405527151], technical replicate 3, what was measured?
viability, normalised (%): 43.9; call: active

Which result is listed for HKDC1 (hexokinase domain containing 1) [SID405528594], technical replicate 1?
viability, normalised (%): 54.4; call: active

What is on record for HKDC1 (hexokinase domain containing 1) [SID405528594], technical replicate 2?
viability, normalised (%): 38.3; call: active

For HKDC1 (hexokinase domain containing 1) [SID405528594], technical replicate 3, how do the results read?
viability, normalised (%): 67.6; call: active

What is on record for FTO (FTO alpha-ketoglutarate dependent dioxygenase) [SID405526802], technical replicate 1?
viability, normalised (%): 65.5; call: active

With FTO (FTO alpha-ketoglutarate dependent dioxygenase) [SID405526802], technical replicate 2, how do the results read?
viability, normalised (%): 63.6; call: active

With FTO (FTO alpha-ketoglutarate dependent dioxygenase) [SID405526802], technical replicate 3, what was measured?
viability, normalised (%): 55; call: active

How did the screen score SUPT4H1 (SPT4 homolog, DSIF elongation factor subunit) [SID405526505], technical replicate 1?
viability, normalised (%): 56.3; call: active

How did the screen score SUPT4H1 (SPT4 homolog, DSIF elongation factor subunit) [SID405526505], technical replicate 2?
viability, normalised (%): 67.8; call: active

For SUPT4H1 (SPT4 homolog, DSIF elongation factor subunit) [SID405526505], technical replicate 3, what does the deposit list?
viability, normalised (%): 40.4; call: active

Records listed so far whose gene name starts with H or h (3):
HKDC1 (hexokinase domain containing 1) [SID405528594], technical replicate 1 | viability, normalised (%) = 54.4; call = active
HKDC1 (hexokinase domain containing 1) [SID405528594], technical replicate 2 | viability, normalised (%) = 38.3; call = active
HKDC1 (hexokinase domain containing 1) [SID405528594], technical replicate 3 | viability, normalised (%) = 67.6; call = active
